Taken from: PubChem BioAssay AID1259297 (Sanger Institute, 2017)
Assay: 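Kinase knock-downs that lower colorectal cancer cell viability or act with drugs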 (primary screen). System: human RCM1 colorectal cancer cell line. Reagent: siRNA pool against human genes. Conditions: separate arms: DMSO vehicle, or one anchor drug at a mild dose: BYL719 1 µM, cetuximab 5 µg/ml, trametinib 10 nM. Detection: 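Viability per well relative to a non-targeting pool, mean of replicates; robust z-score for knock-down alone; synergy score with BYL719, cetuximab or trametinib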. Direction: viability z-score, knock-down alone: higher = more viable cells than non-targeting controls; viability, knock-down alone (DMSO): higher = more viable cells; synergy score with trametinib: higher = stronger combined killing with trametinib. Active means: 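Essential when the viability robust z-score for knock-down alone is below -3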. Calls: active = essential when knocked down alone; inactive = no clear loss of viability alone.
The whole screen tested 794 reagents; shown is a random part of them. 13 of all reagents (1.6%) count as active. 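Calls reflect knock-down without drug only; drug synergy is judged separately, with scores above 0.15 counted as synergy.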 Viability is capped at 1. Not all columns of the deposit are shown. Reagent sequences are not shown. Not given: the amount of reagent, the time to read-out.

Target gene	viability z-score, knock-down alone	viability, knock-down alone (DMSO) (fraction of control)	synergy score with trametinib	outcome
TNK1 (tyrosine kinase non receptor 1)	-0.0648	0.91	-0.232	inactive
FBXW7 (F-box and WD repeat domain containing 7)	0.9	1	0.0966	inactive
AK1 (adenylate kinase 1)	0.9	1	0.121	inactive
CLK1 (CDC like kinase 1)	0.361	0.95	-0.0145	inactive
PAK2 (p21 (RAC1) activated kinase 2)	0.519	0.965	-0.0194	inactive
TP53 (tumor protein p53)	-1.4	0.786	0.144	inactive
NEK9 (NIMA related kinase 9)	-0.0388	0.913	0.0435	inactive
NLK (nemo like kinase)	0.807	0.991	0.172	inactive
FGR (FGR proto-oncogene, Src family tyrosine kinase)	-0.349	0.884	0.0166	inactive
NUP107 (nucleoporin 107)	-0.525	0.868	-0.0174	inactive
CPNE3 (copine 3)	-0.298	0.889	0.0136	inactive
TPK1 (thiamin pyrophosphokinase 1)	-0.659	0.855	0.0606	inactive
PHKG2 (phosphorylase kinase catalytic subunit gamma 2)	0.9	1	-0.0984	inactive
PBK (PDZ binding kinase)	0.85	0.995	0.0732	inactive
SHPK (sedoheptulokinase)	0.0834	0.924	0.0944	inactive
LMTK2 (lemur tail kinase 2)	-0.597	0.861	0.0732	inactive
PTPN11 (protein tyrosine phosphatase non-receptor type 11)	0.099	0.926	-0.000457	inactive
EFNA4 (ephrin A4)	-0.628	0.858	0.0389	inactive
CDK16 (cyclin dependent kinase 16)	-0.114	0.906	0.0321	inactive
BTK (Bruton tyrosine kinase)	0.9	1	0.0608	inactive
BMX (BMX non-receptor tyrosine kinase)	0.439	0.957	0.116	inactive
BUB1 (BUB1 mitotic checkpoint serine/threonine kinase)	-0.139	0.904	0.0224	inactive
DCK (deoxycytidine kinase)	-0.174	0.9	0.0154	inactive
ALPK3 (alpha kinase 3)	-0.0768	0.909	-0.0654	inactive
PRKAR1A	0.9	1	0.0513	inactive
PFKP (phosphofructokinase, platelet)	-0.0782	0.909	-0.0585	inactive
TSKS (testis specific serine kinase substrate)	0.9	1	-0.0154	inactive
LYN (LYN proto-oncogene, Src family tyrosine kinase)	0.9	1	0.0633	inactive
CUL1 (cullin 1)	0.9	1	-0.0783	inactive
PIKFYVE (phosphoinositide kinase, FYVE-type zinc finger containing)	0.9	1	-0.0715	inactive

3 entries from above, reformatted.
{"Target gene":"TP53 (tumor protein p53)","viability z-score, knock-down alone":-1.4,"viability, knock-down alone (DMSO) (fraction of control)":0.786,"synergy score with trametinib":0.144,"outcome":"inactive"}
{"Target gene":"NEK9 (NIMA related kinase 9)","viability z-score, knock-down alone":-0.0388,"viability, knock-down alone (DMSO) (fraction of control)":0.913,"synergy score with trametinib":0.0435,"outcome":"inactive"}
{"Target gene":"NLK (nemo like kinase)","viability z-score, knock-down alone":0.807,"viability, knock-down alone (DMSO) (fraction of control)":0.991,"synergy score with trametinib":0.172,"outcome":"inactive"}

The listing continues:
Target gene	viability z-score, knock-down alone	viability, knock-down alone (DMSO) (fraction of control)	synergy score with trametinib	outcome
MAPK9 (mitogen-activated protein kinase 9)	0.232	0.938	-0.0992	inactive
CSNK2A1 (casein kinase 2 alpha 1)	0.877	0.998	-0.0105	inactive
RPS6KB1 (ribosomal protein S6 kinase B1)	0.107	0.926	-0.17	inactive
PI4KB (phosphatidylinositol 4-kinase beta)	0.284	0.943	0.0673	inactive
CIB2 (calcium and integrin binding family member 2)	0.248	0.939	-0.147	inactive
SKAP1 (src kinase associated phosphoprotein 1)	0.9	1	-0.00373	inactive
PIM1 (Pim-1 proto-oncogene, serine/threonine kinase)	-0.788	0.843	0.194	inactive
DDR1 (discoidin domain receptor tyrosine kinase 1)	0.9	1	-0.0132	inactive
ASPM (assembly factor for spindle microtubules)	0.9	1	-0.00966	inactive
CREBBP (CREB binding lysine acetyltransferase)	-0.158	0.902	0.14	inactive
MAP2K4 (mitogen-activated protein kinase kinase 4)	-0.542	0.866	-0.109	inactive
PRKAA2 (protein kinase AMP-activated catalytic subunit alpha 2)	0.536	0.966	-0.0226	inactive
RPS6KA6 (ribosomal protein S6 kinase A6)	-0.307	0.888	0.0298	inactive
JAK2 (Janus kinase 2)	-0.919	0.831	0.188	inactive
TEC (tec protein tyrosine kinase)	-1.44	0.783	0.0229	inactive
HSPB8 (heat shock protein family B (small) member 8)	-0.136	0.904	0.102	inactive
PFKFB3 (6-phosphofructo-2-kinase/fructose-2,6-biphosphatase 3)	-1.53	0.775	0.0881	inactive
GRK5 (G protein-coupled receptor kinase 5)	0.9	1	0.0542	inactive
MAPK10 (mitogen-activated protein kinase 10)	-0.267	0.892	0.0644	inactive
DAPK3 (death associated protein kinase 3)	-0.0605	0.911	0.189	inactive
NRAS (NRAS proto-oncogene, GTPase)	-0.0877	0.908	-0.0231	inactive
ERN2 (endoplasmic reticulum to nucleus signaling 2)	0.9	1	0.0938	inactive
CILK1 (ciliogenesis associated kinase 1)	0.35	0.949	0.011	inactive
RPS6KC1 (ribosomal protein S6 kinase C1)	0.9	1	0.102	inactive
IP6K2 (inositol hexakisphosphate kinase 2)	-1.61	0.767	0.0951	inactive
CLK2 (CDC like kinase 2)	0.859	0.996	-0.0205	inactive
SBK1 (SH3 domain binding kinase 1)	0.9	1	0.00774	inactive
TBK1 (TANK binding kinase 1)	-0.896	0.833	0.141	inactive
DYRK1B	0.137	0.929	0.0681	inactive
NRK (Nik related kinase)	-0.106	0.907	0.129	inactive
PI4K2A (phosphatidylinositol 4-kinase type 2 alpha)	0.867	0.997	-0.0321	inactive
PIP4K2A (phosphatidylinositol-5-phosphate 4-kinase type 2 alpha)	0.9	1	-0.108	inactive
SIK3 (SIK family kinase 3)	0.228	0.938	0.0619	inactive
